# Source: the supplement of paper PMC6690932
# Structures can show the parent of a compound that is named as a salt. ± gives the standard deviation of the averaged measurements. The list shows a part of the results. Repeats are few or missing, and single values can be far off.
# Test system: HeLa
# Assay: lysosomal-METRIQ red/green fluorescence ratio relative to DMSO (ratio to DMSO); higher = higher lysosomal activity / lysosomal biogenesis
# Conditions: 10 µM; 12 h
row,SMILES,lysosomal-METRIQ red/green fluorescence ratio
1,COc1ccc(Cn2ccc3ccc(C(=O)NO)cc32)cc1,0.955
2,C[C@]1(O)C[C@@H](c2nc(-c3ccc4ccc(-c5ccccc5)nc4c3)c3c(N)nccn32)C1,0.909
3,Cc1cnc(-c2cnc(NCCNc3ccc(C#N)cn3)nc2-c2ccc(Cl)cc2Cl)[nH]1,0.545
4,O=CN1CCN(c2ccc(/C=C3\C(=O)Nc4ccccc43)cc2)CC1,1
5,CS(=O)(=O)CCNCc1ccc(-c2ccc3ncnc(Nc4ccc(OCc5cccc(F)c5)c(Cl)c4)c3c2)o1 [lapatinib],0.545
6,CC(C)C(=O)Nc1ccc([N+](=O)[O-])c(C(F)(F)F)c1 [Flutamide],0.968
7,Cn1cnc2c(NCc3ccccc3)nc(NCCO)nc21 [Olomoucine],0.973 ± 0.1
8,O=C1C(SCCO)=C(SCCO)C(=O)c2ccccc21,0.68
9,CN(C)CC(=O)Nc1ccc2[nH]c(=O)c3ccccc3c2c1,0.818
10,COC(=O)Nc1nc2cc(C(=O)c3cccs3)ccc2[nH]1 [Nocodazole],1.07
11,CC(/C=C/C(=O)NO)=C\[C@@H](C)C(=O)c1ccc(N(C)C)cc1 [Trichostatin A],0.65
12,CCOC(=O)C1=C(N)Oc2ccc(Br)cc2C1C(C#N)C(=O)OCC (stereo not given),0.96
13,C[n+]1ccc(-c2c3nc(c(-c4cc[n+](C)cc4)c4ccc([nH]4)c(-c4cc[n+](C)cc4)c4ccc([nH]4)c(-c4cc[n+](C)cc4)c4nc2C=C4)C=C3)cc1,0.682
14,Oc1ccc(-c2nc(-c3ccc(F)cc3)c(-c3ccncc3)[nH]2)cc1,1.06
15,O=c1oc2c(O)c(O)cc3c(=O)oc4c(O)c(O)cc1c4c23 [Ellagic acid],1
16,Cc1c2oc3c(C)ccc(C(=O)N[C@@H]4C(=O)N[C@H](C(C)C)C(=O)N5CCC[C@H]5C(=O)N(C)CC(=O)N(C)[C@@H](C(C)C)C(=O)O[C@@H]4C)c3nc-2c(C(=O)N[C@@H]2C(=O)N[C@H](C(C)C)C(=O)N3CCC[C@H]3C(=O)N(C)CC(=O)N(C)[C@@H](C(C)C)C(=O)O[C@@H]2C)c(N)c1=O [Actinomycin D],1.19
17,CC(Cc1ccc(O)c(O)c1)C(C)Cc1ccc(O)c(O)c1 (stereo not given) [Nordihydroguaiaretic acid (NDGA)],1.04
18,COc1cc2/c(=N/c3ccc(Br)cc3F)nc[nH]c2cc1OCC1CCN(C)CC1 [Vandetanib],0.909

row,SMILES,lysosomal-METRIQ red/green fluorescence ratio
1,CC[C@]1(O)C[C@@H]2CN(CCc3c([nH]c4ccccc34)[C@@](C(=O)OC)(c3cc4c(cc3OC)N(C)[C@H]3[C@@](O)(C(=O)OC)[C@H](OC(C)=O)[C@]5(CC)C=CCN6CC[C@]43[C@@H]65)C2)C1 [Vinblastine sulfate],1.29
2,Oc1nc(-c2ccc(C(F)(F)F)cc2)nc2c1CSCC2,0.909
3,NC(=O)c1ccc2nc(-c3ccc(Oc4ccc(Cl)cc4)cc3)[nH]c2c1 [Chk2 inhibitor II],1.09
4,O=C(Nc1cccc(Nc2nccc(Nc3cccc(C(F)(F)F)c3)n2)c1)C1CC1 [Aurora kinase inhibitor III],1.18
5,COc1ccc([C@@H]2Sc3ccccc3N(CCN(C)C)C(=O)[C@@H]2OC(C)=O)cc1 [Diltiazem],1.04
6,CCN(CC)CCCCNc1ncc2cc(-c3cc(OC)cc(OC)c3)c(NC(=O)NC(C)(C)C)nc2n1,0.727
7,Nc1ncn([C@@H]2O[C@H](CO)[C@@H](O)[C@H]2O)c(=O)n1 [Azacytidine],1.35
8,CNC(=O)c1ccc(N2C(=S)N(c3ccc(C#N)c(C(F)(F)F)c3)C(=O)C2(C)C)cc1F,0.864
9,CCOC(=O)C(C)(C)Oc1ccc(Cl)cc1 [Clofibrate],1.04
10,COc1cc2ncnc(Nc3ccc(F)c(Cl)c3)c2cc1OCCCN1CCOCC1 [gefitinib],0.682
11,CC(C)[C@H](CO)Nc1nc(Nc2cccc(Cl)c2)c2ncn(C(C)C)c2n1 [purvalanol A],2.14
12,COc1cc(/C=C(\C#N)C(N)=O)cc(CSc2nc3ccccc3s2)c1O,1.02 ± 0.12
13,CCCS(=O)(=O)Nc1ccc(F)c(C(=O)c2c[nH]c3ncc(-c4ccc(Cl)cc4)cc23)c1F [Vemurafenib],0.909
14,CC(C)c1ccc2c(c1)c(SC(C)(C)C)c(CC(C)(C)C(=O)O)n2Cc1ccc(Cl)cc1,1.13
15,Cc1ccc(Nc2nccc(N(C)c3ccc4c(C)n(C)nc4c3)n2)cc1S(N)(=O)=O [pazopanib],0.818
16,Cc1nc2sccn2c(=O)c1CCN1CCC(=C(c2ccccc2)c2ccc(F)cc2)CC1,1.04
17,COC(=O)C[C@H](NC(=O)[C@H](C)NC(=O)[C@@H](NC(=O)OCc1ccccc1)C(C)C)C(=O)CF,1

# As a short view, some entries already given.
row,SMILES,lysosomal-METRIQ red/green fluorescence ratio
9,CCOC(=O)C(C)(C)Oc1ccc(Cl)cc1 [Clofibrate],1.04
10,COc1cc2ncnc(Nc3ccc(F)c(Cl)c3)c2cc1OCCCN1CCOCC1 [gefitinib],0.682
